Laboratory results taken from PubChem BioAssay AID493014 (National Center for Advancing Translational Sciences (NCATS), 2011).
The list shows a part of the results. The main result of the screen is listed elsewhere. These columns were measured beside it and carry no call. Compounds called inactive in the main read-out are mostly missing here. The note in brackets gives the kind of curve behind each potency; many fits are weak.

Test: qHTS Assay to Find Inhibitors of Chronic Active B-Cell Receptor Signaling
Settings: ABC-DLBCL IkBa-CBG/CBR reporter, luminescence ratio (green luciferase fused to IkBa over red control in TMD8 lymphoma cells), 4 h
In short: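 TMD8 ABC-DLBCL cells carrying doxycycline-inducible green luciferase fused to IkappaBalpha plus unfused red luciferase were exposed to compounds (up to 46 uM) for 4 hrs at 37C. Activity came from the overlap-corrected green/red luminescence ratio.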

[1] = measured here: CBR red luminescence, cell number
[2] = measured here: IkBa-CBG green luminescence

SMILES | AC50 [1] | AC50 [2]
CCN(c1ccc(NC(=O)CSCc2c(C)noc2C)cc1)C(C)C | 29.1 µM [rising, single point] | 
COc1ccc(C(CNC(=O)c2ccc(S(=O)(=O)N3CC(C)CC(C)C3)cc2)N(C)C)cc1 (centres undefined) | 6.51 µM [rising, single point] | 2.91 µM [falling, single point]
Cc1ccc2nc(N/C(=N/S(=O)(=O)c3ccc(F)cc3)c3ccccc3)sc2c1 | 0.794 µM [falling, full curve] | 
CC1CN(C(=O)c2cccc(COc3ccccc3Cl)c2)CC(C)O1 (centres undefined) | 1.12 µM [rising, partial curve, poor fit] | 
NC(=O)/C=C/C(=O)Nc1ccc(Cl)cc1 | 12.6 µM [falling, partial curve] | 15.8 µM [rising, partial curve, poor fit]
NC(N)=N/N=C/c1cccc(Cl)c1Cl | 14.1 µM [falling, partial curve, poor fit] | 
O=C(NCc1ccc2c(c1)CCN2C(=O)c1ccc(F)cc1)c1ccc(Br)o1 | 8.91 µM [falling, partial curve, poor fit] | 
COc1cccc(/C=N/n2c(-c3ccco3)nc3ccccc3c2=O)c1 | 0.411 µM [falling, full curve] | 
COc1ccc2[nH]c(=O)c(COC(=O)c3ccco3)cc2c1 | 29.1 µM [rising, single point] | 
Cc1c(C(=O)/C=C/N(C)C)nnn1-c1ccc(Cl)c(Cl)c1 | 35.5 µM [rising, single point] | 
CCN1c2ccccc2-c2nc3ccccc3n2C1c1cccnc1 (centres undefined) | 3.98 µM [falling, full curve, poor fit] | 
COCc1cc(=O)[nH]c(/N=C(\N)Nc2cccc(C)c2)n1 | 25.9 µM [falling, partial curve, poor fit] | 
NC(=O)c1ccc[n+](CC(=O)c2ccccc2)c1 | 3.98 µM [rising, single point] | 
CCc1ccc(/C(C)=N\Nc2ccc([N+](=O)[O-])cc2)cc1 | 11.2 µM [rising, partial curve] | 
O=C(NCCCN1CCOCC1)C(=O)N/N=C/c1ccc(F)cc1 | 3.16 µM [falling, single point] | 
CCSc1ccccc1C(=O)NCCc1ccccc1 | 22.4 µM [rising, single point] | 
O=c1nc(Nc2ccccc2)oc2ccccc12 | 6.31 µM [falling, partial curve] | 
COC(=O)CSc1nc(C)c(C(C)=O)cc1C#N | 7.31 µM [falling, partial curve] | 
CCOc1ccccc1NC(=O)NNS(=O)(=O)c1ccc([N+](=O)[O-])cc1 | 0.631 µM [falling, full curve, poor fit] | 
COc1ccccc1OCc1csc(NC(=O)c2ccco2)n1 | 17.8 µM [falling, single point] | 

SMILES | AC50 [1] | AC50 [2]
CC(=O)N1N=C(c2c(-c3ccccc3)c3cc(Br)ccc3[nH]c2=O)CC1c1ccco1 (centres undefined) | 10 µM [falling, partial curve, poor fit] | 
CN(C(=O)c1cccc(C#N)c1)c1nnc(-c2ccccn2)s1 | 0.461 µM [rising, full curve, poor fit] | 
O=c1[nH][nH]c(-c2ccccc2O)c1C(C[N+](=O)[O-])c1cccc(Cl)c1 (centres undefined) | 20.6 µM [falling, single point] | 29.1 µM [falling, partial curve, poor fit]
Cc1cc(=O)n2nc(-c3ccc(C(F)(F)F)cc3)sc2n1 | 2.06 µM [rising, partial curve, poor fit] | 
O=C(Nc1ccc(F)c(Cl)c1)Nc1cnccn1 | 14.1 µM [rising, single point] | 
COC(=O)c1ccc(C)c(NC(=O)c2c(-c3ccccc3)noc2C)c1 | 23.1 µM [rising, single point] | 
Cc1ccc(-c2nc(C(=O)NCCCN3CCOCC3)cc3c2[nH]c2ccccc23)cc1 | 35.5 µM [falling, single point] | 20 µM [rising, single point]
Cc1ccc(NC(=O)c2cc(NC(=O)CCCC(=O)O)ccc2Cl)cc1Cl | 11.2 µM [falling, partial curve, poor fit] | 
COC(CN(C(=O)CCl)C(C(=O)NC1CCCCC1)c1ccc(C)cc1)OC (centres undefined) | 29.1 µM [falling, single point] | 
CCN1CCN(C(=O)c2ccc(N3CC4CC(C3)c3cccc(=O)n3C4)c([N+](=O)[O-])c2)CC1 (centres undefined) | 12.6 µM [rising, single point] | 
COc1cccc(C2N(c3ccccc3)CCN2c2ccccc2)c1OC | 11.2 µM [rising, partial curve] | 
O=C(Nc1ccc(N2CCOCC2)cc1)c1ccc(S(=O)(=O)NCc2ccco2)cc1 | 12.6 µM [rising, partial curve, poor fit] | 
N#Cc1ccc(-c2ccc(OCC(O)CN3CCCCC3)cc2)cc1 (centres undefined) | 10 µM [falling, single point] | 
CC(C)CNC(=O)c1ccccc1NC(=O)CCSc1ccccc1 | 2.31 µM [falling, full curve, poor fit] | 
CC(=O)c1ccc(NC(=O)c2ccc3nc(C)sc3c2)cc1 | 7.94 µM [rising, partial curve] | 
Cc1noc(C)c1S(=O)(=O)N1CCCCC1 | 6.51 µM [rising, single point] | 
CCN(CC)S(=O)(=O)c1ccc(C(=O)OCCN2C(=O)CCC2=O)cc1 | 1.78 µM [rising, full curve, poor fit] | 
C=CCn1c(N)c(S(=O)(=O)c2cccs2)c2nc3ccccc3nc21 | 4.61 µM [falling, partial curve, poor fit] | 
Cn1nc(N)c2c(-c3ccc(Cl)cc3)c(C#N)c(N)nc21 | 1.16 µM [falling, full curve, poor fit] | 
O=C(Nc1cccc(NC(=O)N2CCN(c3ccccc3)CC2)c1)N1CCN(c2ccccc2)CC1 | 0.794 µM [falling, full curve] | 

Reformatted comma-delimited: 3 of the compounds above
SMILES,AC50 [1],AC50 [2]
CC(=O)N1N=C(c2c(-c3ccccc3)c3cc(Br)ccc3[nH]c2=O)CC1c1ccco1 (centres undefined),"10 µM [falling, partial curve, poor fit]",
O=C(Nc1ccc(F)c(Cl)c1)Nc1cnccn1,"14.1 µM [rising, single point]",
COc1cccc(C2N(c3ccccc3)CCN2c2ccccc2)c1OC,"11.2 µM [rising, partial curve]",
